System: Crimson Seedless berries
Assay: Berry fresh weight and juice soluble solids, Crimson Seedless experiment
Assay type: in vivo, grape
Conditions: for Berry wt / Soluble solids: fourteen days after treatment

## CC/C=C\CC1C(=O)CCC1CC(=O)OC (centres unmarked) [MeJA, methyl jasmonate]
1125-4500 ppm, 14 DAT
  Effect on berry fresh weight: did not affect berry fresh weight
1125 ppm
  Berry wt: 5.41 g
  Soluble solids: 19.76 ab Brix
2250 ppm
  Berry wt: 5.96 g
  Soluble solids: 19.30 b Brix
4500 ppm
  Berry wt: 5.54 g
  Soluble solids: 19.28 b Brix
>2250 ppm, 14 DAT
  Effect on juice soluble solids: slightly reduced juice soluble solids
